Data on two molecules can be found in paper PMC12681378, “Transcriptomic and enzymological evidence for plastid peptidoglycan synthesis in the gymnosperm Picea abies” (The Plant Journal, 2025).

The assay addresses T1, Larix gmelinii MurE without the transit peptide (LgMurE-TP), with the SATD (Larix gmelinii).
T1 sequence: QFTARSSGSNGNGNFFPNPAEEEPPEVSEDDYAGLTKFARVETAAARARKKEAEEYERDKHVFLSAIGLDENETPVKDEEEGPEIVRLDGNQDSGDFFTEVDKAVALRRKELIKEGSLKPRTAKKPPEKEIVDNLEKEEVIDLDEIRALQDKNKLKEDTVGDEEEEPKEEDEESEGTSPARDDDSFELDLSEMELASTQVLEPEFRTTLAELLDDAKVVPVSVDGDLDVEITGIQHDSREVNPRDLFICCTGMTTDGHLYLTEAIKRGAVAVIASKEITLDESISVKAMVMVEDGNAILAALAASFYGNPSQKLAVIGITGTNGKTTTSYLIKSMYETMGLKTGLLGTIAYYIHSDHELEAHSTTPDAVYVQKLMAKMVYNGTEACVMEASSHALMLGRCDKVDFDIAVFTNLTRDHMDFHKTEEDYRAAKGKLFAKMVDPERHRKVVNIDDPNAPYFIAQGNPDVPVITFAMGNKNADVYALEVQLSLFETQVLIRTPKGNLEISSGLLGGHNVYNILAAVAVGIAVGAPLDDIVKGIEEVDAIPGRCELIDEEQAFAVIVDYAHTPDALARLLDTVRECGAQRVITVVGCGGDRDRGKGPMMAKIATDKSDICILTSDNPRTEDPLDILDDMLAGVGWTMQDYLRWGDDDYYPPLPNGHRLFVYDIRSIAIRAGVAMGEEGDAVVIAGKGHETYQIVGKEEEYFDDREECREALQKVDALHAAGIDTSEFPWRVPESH
Briefly: affinity purification with mass spectrometry; His-tagged MurE with SATD expressed in the heterologous host (especially E. coli) and purified on Ni resin; copurifying bands cut from SDS-PAGE gels and identified by LC-MS.

No constants are given. Whether binding was seen depends on the method and setting. Binding seen in cells or lysates may run through a third protein. A yes stands for co-enrichment or nearness to the bait. Other partners may have been found. Where a sequence is shown, tags or fusion partners need not be part of it.

B1: glucosamine-6-phosphate synthase GlmS (enzyme, UniProt P17169 1-609)
chain: MCGIVGAIAQRDVAEILLEGLRRLEYRGYDSAGLAVVDAEGHMTRLRRLGKVQMLAQAAEEHPLHGGTGIAHTRWATHGEPSEVNAHPHVSEHIVVVHNGIIENHEPLREELKARGYTFVSETDTEVIAHLVNWELKQGGTLREAVLRAIPQLRGAYGTVIMDSRHPDTLLAARSGSPLVIGLGMGENFIASDQLALLPVTRRFIFLEEGDIAEITRRSVNIFDKTGAEVKRQDIESNLQYDAGDKGIYRHYMQKEIYEQPNAIKNTLTGRISHGQVDLSELGPNADELLSKVEHIQILACGTSYNSGMVSRYWFESLAGIPCDVEIASEFRYRKSAVRRNSLMITLSQSGETADTLAGLRLSKELGYLGSLAICNVPGSSLVRESDLALMTNAGTEIGVASTKAFTTQLTVLLMLVAKLSRLKGLDASIEHDIVHGLQALPSRIEQMLSQDKRIEALAEDFSDKHHALFLGRGDQYPIALEGALKLKEISYIHAEAYAAGELKHGPLALIDADMPVIVVAPNNELLEKLKSNIEEVRARGGQLYVFADQDAGFVSSDNMHIIEMPHVEEVIAPIFYTVPLQLLAYHVALIKGTDVDQPRNLAKSVTVE
As for B1, the binding entry was “binds”.

B2: bifunctional polymyxin resistance protein ArnA (enzyme, UniProt P77398 1-660)
chain: MKTVVFAYHDMGCLGIEALLAAGYEISAIFTHTDNPGEKAFYGSVARLAAERGIPVYAPDNVNHPLWVERIAQLSPDVIFSFYYRHLIYDEILQLAPAGAFNLHGSLLPKYRGRAPLNWVLVNGETETGVTLHRMVKRADAGAIVAQLRIAIAPDDIAITLHHKLCHAARQLLEQTLPAIKHGNILEIAQRENEATCFGRRTPDDSFLEWHKPASVLHNMVRAVADPWPGAFSYVGNQKFTVWSSRVHPHASKAQPGSVISVAPLLIACGDGALEIVTGQAGDGITMQGSQLAQTLGLVQGSRLNSQPACTARRRTRVLILGVNGFIGNHLTERLLREDHYEVYGLDIGSDAISRFLNHPHFHFVEGDISIHSEWIEYHVKKCDVVLPLVAIATPIEYTRNPLRVFELDFEENLRIIRYCVKYRKRIIFPSTSEVYGMCSDKYFDEDHSNLIVGPVNKPRWIYSVSKQLLDRVIWAYGEKEGLQFTLFRPFNWMGPRLDNLNAARIGSSRAITQLILNLVEGSPIKLIDGGKQKRCFTDIRDGIEALYRIIENAGNRCDGEIINIGNPENEASIEELGEMLLASFEKHPLRHHFPPFAGFRVVESSSYYGKGYQDVEHRKPSIRNAHRCLDWEPKIDMQETIDETLDFFLRTVDLTDKPS
Consider B2, for which the binding result is reported as “binds”.
